Values quoted from earlier work, collected in US12337000B2, “Therapeutic modulators of the reverse mode of ATP synthase” (priority 2017, dated 2025).
Some results were stated once for a whole list of compounds, not compound by compound.

Sequences of proteins named here, by UniProt entry; tags and fusion partners are left off. A change or cut given only in a name is not applied to a line headed by its entry.
UniProt P00829: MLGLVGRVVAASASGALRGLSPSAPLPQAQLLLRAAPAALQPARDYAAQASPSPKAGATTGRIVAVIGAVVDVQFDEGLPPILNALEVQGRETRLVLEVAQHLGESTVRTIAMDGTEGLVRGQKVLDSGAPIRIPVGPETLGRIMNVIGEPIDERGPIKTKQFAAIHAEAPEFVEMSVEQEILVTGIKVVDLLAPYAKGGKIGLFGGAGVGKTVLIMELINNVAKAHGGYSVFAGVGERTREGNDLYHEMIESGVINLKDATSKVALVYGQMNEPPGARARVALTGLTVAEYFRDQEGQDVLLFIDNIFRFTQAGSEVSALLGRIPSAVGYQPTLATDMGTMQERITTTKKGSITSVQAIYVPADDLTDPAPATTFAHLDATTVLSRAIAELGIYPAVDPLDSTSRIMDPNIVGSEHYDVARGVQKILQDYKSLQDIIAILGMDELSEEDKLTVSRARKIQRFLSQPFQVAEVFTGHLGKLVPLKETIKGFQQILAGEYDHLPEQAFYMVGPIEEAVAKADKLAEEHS
UniProt P19483: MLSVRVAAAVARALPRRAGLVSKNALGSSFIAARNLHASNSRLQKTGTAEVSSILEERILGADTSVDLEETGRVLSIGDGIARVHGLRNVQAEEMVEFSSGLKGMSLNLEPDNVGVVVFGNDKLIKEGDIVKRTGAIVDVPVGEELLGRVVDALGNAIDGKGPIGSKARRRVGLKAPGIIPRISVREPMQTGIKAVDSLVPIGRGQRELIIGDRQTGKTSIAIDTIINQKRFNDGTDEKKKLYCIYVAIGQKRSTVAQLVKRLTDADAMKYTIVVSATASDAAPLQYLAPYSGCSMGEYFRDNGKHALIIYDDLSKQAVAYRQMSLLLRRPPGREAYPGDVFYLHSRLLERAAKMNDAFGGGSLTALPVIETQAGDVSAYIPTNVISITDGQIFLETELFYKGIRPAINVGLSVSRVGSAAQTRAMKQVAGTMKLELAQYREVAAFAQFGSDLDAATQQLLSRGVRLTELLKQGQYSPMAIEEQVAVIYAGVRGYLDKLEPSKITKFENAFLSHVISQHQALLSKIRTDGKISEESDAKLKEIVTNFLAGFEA

Biological target: T1, F1F0 ATP synthesis (Bos taurus, UniProt P00829+P19483)
T1 construct: are from sub-mitochondrial (SMP) studies in [5-8]; from tissue; host or cells: sub-mitochondrial particles (SMPs)
Conditions: SMP assays, [5-8]; cited from earlier work

Row | Compound | EC50 [µM]
1 | N#Cc1cccc(C(=O)/N=C(\Nc2ccc(Cl)cc2)N[C@@H](Cn2ccnc2)c2ccc(Cl)cc2Cl)c1 [Compound 6a] | > 100
2 | N#Cc1cccc(C(=O)/N=C(\Nc2ccc(Cl)cc2)N[C@H](Cn2ccnc2)c2ccc(Cl)cc2Cl)c1 [Compound 6b] | > 100
